According to publication PMC8967061:
No constants are given. Whether binding was seen depends on the method and setting. A result given as binding can be weak or reduced; the word gives no strength.

Sequences of proteins named here, by UniProt entry; tags and fusion partners are left off. A change or cut given only in a name is not applied to a line headed by its entry. Residues count along the entry.
UniProt P02649, residues 19-317: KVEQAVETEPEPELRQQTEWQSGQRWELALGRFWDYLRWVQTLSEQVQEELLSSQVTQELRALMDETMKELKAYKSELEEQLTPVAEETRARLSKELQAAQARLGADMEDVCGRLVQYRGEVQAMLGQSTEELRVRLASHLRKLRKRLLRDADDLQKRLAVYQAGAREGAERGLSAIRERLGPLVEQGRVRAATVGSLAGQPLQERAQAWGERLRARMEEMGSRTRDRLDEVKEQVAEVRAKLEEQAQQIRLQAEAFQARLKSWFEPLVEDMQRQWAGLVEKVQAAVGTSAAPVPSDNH
UniProt P08603: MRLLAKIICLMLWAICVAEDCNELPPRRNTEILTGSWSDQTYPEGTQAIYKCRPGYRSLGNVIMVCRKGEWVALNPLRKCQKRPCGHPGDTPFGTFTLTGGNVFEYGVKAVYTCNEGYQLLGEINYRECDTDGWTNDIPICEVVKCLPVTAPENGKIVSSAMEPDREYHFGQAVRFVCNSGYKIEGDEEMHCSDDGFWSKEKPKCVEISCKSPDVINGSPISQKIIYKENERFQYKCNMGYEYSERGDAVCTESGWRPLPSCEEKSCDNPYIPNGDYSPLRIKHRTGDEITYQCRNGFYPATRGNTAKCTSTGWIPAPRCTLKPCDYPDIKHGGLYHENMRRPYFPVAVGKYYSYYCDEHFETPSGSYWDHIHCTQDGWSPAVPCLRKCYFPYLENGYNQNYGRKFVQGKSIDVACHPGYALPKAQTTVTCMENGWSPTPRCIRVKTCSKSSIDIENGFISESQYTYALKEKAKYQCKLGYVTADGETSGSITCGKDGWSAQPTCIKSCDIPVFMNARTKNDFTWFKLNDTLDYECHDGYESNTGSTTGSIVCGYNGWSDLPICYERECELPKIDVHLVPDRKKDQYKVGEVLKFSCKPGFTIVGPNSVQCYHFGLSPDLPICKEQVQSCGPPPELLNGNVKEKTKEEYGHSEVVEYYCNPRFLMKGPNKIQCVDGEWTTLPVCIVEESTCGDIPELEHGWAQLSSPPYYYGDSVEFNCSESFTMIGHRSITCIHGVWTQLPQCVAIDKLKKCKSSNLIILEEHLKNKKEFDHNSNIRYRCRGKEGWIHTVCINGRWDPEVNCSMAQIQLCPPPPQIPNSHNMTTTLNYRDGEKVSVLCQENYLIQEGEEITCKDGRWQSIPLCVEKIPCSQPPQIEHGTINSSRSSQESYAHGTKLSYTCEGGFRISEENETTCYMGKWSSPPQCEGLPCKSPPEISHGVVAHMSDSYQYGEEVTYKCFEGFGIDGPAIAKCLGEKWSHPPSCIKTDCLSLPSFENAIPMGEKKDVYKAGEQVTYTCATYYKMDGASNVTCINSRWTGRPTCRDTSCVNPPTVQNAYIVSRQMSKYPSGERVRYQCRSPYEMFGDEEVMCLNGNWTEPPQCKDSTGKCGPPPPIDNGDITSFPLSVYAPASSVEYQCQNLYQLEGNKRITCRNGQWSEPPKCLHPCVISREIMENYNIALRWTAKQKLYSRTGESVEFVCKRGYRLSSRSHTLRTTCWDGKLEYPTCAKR

Assays:
ApoE3 = ApoE3 (UniProt P02649); experiment: ELISA; controls for the FH5-7 fragment: binding to ApoE and heparin (positive), BSA (negative); both purified
[1] = biological target: T1, Factor H binding protein A (FhbA) from Borrelia hermsii, wild type (Borrelia hermsii YOR) (UniProt W5SB08); experiment: ELISA; BhFhbA or BdFhbA (1 ug/ml) coated on plates, FH19-20 or FH5-7 added in serial dilutions, detected by polyclonal anti-FH (or monoclonal VIG8); both purified
T1 sequence: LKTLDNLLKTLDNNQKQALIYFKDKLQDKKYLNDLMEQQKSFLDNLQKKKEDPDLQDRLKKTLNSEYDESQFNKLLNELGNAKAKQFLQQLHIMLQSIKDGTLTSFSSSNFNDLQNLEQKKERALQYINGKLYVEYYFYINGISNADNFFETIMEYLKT

Substance: Factor H domains 5-7 (from UniProt P08603) (domain or fragment)
- binding (ApoE3): binds
- binding [1]: binds weakly
